PubChem BioAssay AID1259259 | Sanger Institute, 2017

- Aim: 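Kinase silencing that lowers colorectal cancer cell viability alone or with drugs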 (primary screen)
- Cells: SW1463 human colorectal cancer cells
- Reagents: siRNA pool against human genes
- Challenge: DMSO vehicle, or one anchor drug: BYL719 at 1 µM, cetuximab at 5 µg/ml, or trametinib at 10 nM
- Measurement: 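Viability as fraction of control pool 2 (non-targeting), replicate mean; knock-down robust z-score without any drug; synergy score averaged for each anchor drug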
- Reading the numbers: robust z-score, knock-down alone: higher = more viable cells after knock-down
- Rule for the call: 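a robust z-score under -3 for knock-down with no drug marks the gene as essential, meaning viability loss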
- Meaning of the calls: active = essential: viability loss from knock-down alone; inactive = no change from knock-down alone
Shown is a random part of 794 deposited reagents. In the full data, 9 (1.1%) got an active call. 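Calls rest on knock-down alone, not drug synergy; viability values seem capped at 1.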 Further read-outs or replicates are left out here. The record does not give: the amount of reagent, the time to read-out.

| gene symbol | robust z-score, knock-down alone | call |
| --- | --- | --- |
| NR2F2 | 1.13 | inactive |
| CDK18 | -0.278 | inactive |
| CDK9 | -0.73 | inactive |
| STK16 | 0.167 | inactive |
| TCF7L2 | 0.639 | inactive |
| CDC73 | -1.47 | inactive |
| CSK | 0.225 | inactive |
| STK32A | 1.13 | inactive |
| TNK1 | -1.49 | inactive |
| CLK4 | 1.04 | inactive |
| ITPKA | 1.13 | inactive |
| GUCY2F | 0.886 | inactive |
| FGFR4 | 0.855 | inactive |
| RIOK1 | 1.13 | inactive |
| MAP3K4 | 0.502 | inactive |
| TRIB1 | 1.13 | inactive |
| STRADA | 1.13 | inactive |
| XYLB | -0.817 | inactive |
| CDC42BPB | -0.899 | inactive |
| CNOT1 | -2.11 | inactive |
| PGK1 | 0.425 | inactive |
| PRKCH | -0.0404 | inactive |
| TP53 | -1.17 | inactive |
| EPHA5 | 1.13 | inactive |
| PDGFRA | 1.13 | inactive |
| MASTL | -0.633 | inactive |
| MAP4K1 | 0.845 | inactive |
| ARAF | 0.294 | inactive |
| DYRK4 | -1.89 | inactive |
| VRK2 | -1.57 | inactive |
| CUL1 | -0.266 | inactive |
| SOS2 | 1.13 | inactive |
| BCKDK | 1.13 | inactive |
| PDGFRB | -3.11 | active |
| STK40 | -0.568 | inactive |
| ATM | -0.3 | inactive |
| CDK1 | 1.13 | inactive |
| PFKFB4 | 1.11 | inactive |
| PTPN11 | 0.0976 | inactive |
| TSSK2 | -0.382 | inactive |
| TRIB3 | -0.132 | inactive |
| LIMK2 | 1.13 | inactive |
| CKB | -0.386 | inactive |
| FBXW7 | 0.119 | inactive |
| RPS6KA3 | -1.13 | inactive |
| GUCY2EP | -0.482 | inactive |
| TRIM27 | 0.894 | inactive |
| SNRK | -0.157 | inactive |
| PRKAG1 | 0.367 | inactive |
| ERN1 | -0.0497 | inactive |

Called active, of those listed so far:
| gene symbol | robust z-score, knock-down alone | call |
| --- | --- | --- |
| PDGFRB | -3.11 | active |
